# Drug screen on melanoma cell lines: apoptosis marker

Values as published with doi:10.1371/journal.pone.0140310, rounded.

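Human melanoma cell lines in 1,536-well plates were treated with a pair of drugs for 72 h, then fixed, stained and imaged. Each value is the cleaved-PARP-positive fraction of nuclei relative to DMSO-treated wells, in %, so that 100 equals the control and higher values mean more apoptosis. Every drug was used at one fixed concentration, the higher of two screened. These are primary screening values without error estimates. The marker varies much from line to line, for technical or biological reasons.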
An unselected part of the screen is shown.
A dash means that no value is listed here.

Compounds and concentrations:
tamatinib (2000 nM): COc1cc(Nc2ncc(F)c(Nc3ccc4c(n3)NC(=O)C(C)(C)O4)n2)cc(OC)c1OC
SU6656 (2000 nM): CN(C)S(=O)(=O)c1ccc2c(c1)/C(=C/c1cc3c([nH]1)CCCC3)C(=O)N2
KU-0063794 (100 nM): COc1ccc(-c2ccc3c(N4CCOCC4)nc(N4C[C@@H](C)O[C@@H](C)C4)nc3n2)cc1CO
crizotinib (1000 nM): C[C@@H](Oc1cc(-c2cnn(C3CCNCC3)c2)cnc1N)c1c(Cl)ccc(F)c1Cl
fludarabine (1000 nM): Nc1nc(F)nc2c1ncn2[C@@H]1O[C@H](CO)[C@@H](O)[C@@H]1O
midostaurin (400 nM): CO[C@@H]1[C@H](N(C)C(=O)c2ccccc2)C[C@H]2O[C@]1(C)n1c3ccccc3c3c4c(c5c6ccccc6n2c5c31)C(=O)NC4
OSI-906 (2000 nM): C[C@]1(O)C[C@@H](c2nc(-c3ccc4ccc(-c5ccccc5)nc4c3)c3c(N)nccn32)C1
darinaparsin (2000 nM): C[As](C)SC[C@H](NC(=O)CC[C@H](N)C(=O)O)C(=O)NCC(=O)O
nutlin-3 (500 nM): COc1ccc(C2=N[C@@H](c3ccc(Cl)cc3)[C@@H](c3ccc(Cl)cc3)N2C(=O)N2CCNC(=O)C2)c(OC(C)C)c1
T0901317 (7000 nM): O=S(=O)(c1ccccc1)N(CC(F)(F)F)c1ccc(C(O)(C(F)(F)F)C(F)(F)F)cc1

Drugs | 501mel | A2058 | COLO 792 | UACC-62 | COLO 800 | LOX IMVI | IPC-298 | MZ2-MEL | WM3526 | IST-MEL1
KU-0063794 + midostaurin | 189 | 388 | 163 | 191 | 484 | 232 | 437 | 173 | 189 | 110
fludarabine + OSI-906 | - | 118 | 62.1 | 63.1 | 99.1 | 76.0 | 210 | - | 4150 | 216
T0901317 + tamatinib | 145 | 280 | 234 | 307 | 157 | 367 | 66.0 | 188 | 165 | 194
KU-0063794 + SU6656 | 313 | 190 | 132 | 86.3 | 374 | 87.4 | 140 | 244 | 159 | 107
SU6656 + nutlin-3 | - | 75.8 | 108 | 129 | 135 | 159 | 73.9 | 109 | 67.0 | 37.5
midostaurin + T0901317 | 293 | 859 | 198 | 95.6 | 801 | 42.1 | 177 | 70.8 | 220 | 148
tamatinib + midostaurin | - | 651 | 459 | 206 | 447 | 681 | 84.0 | 513 | 1280 | 515
T0901317 + nutlin-3 | 149 | 91.7 | 91.1 | 294 | 58.9 | 54.6 | 99.6 | 78.5 | 142 | 154
SU6656 + midostaurin | - | 622 | 186 | 140 | 143 | 75.6 | 97.2 | 866 | 289 | 134
crizotinib + fludarabine | - | 123 | 92.5 | 61.5 | 38.5 | 59.1 | 87.9 | - | 2760 | 108
T0901317 + fludarabine | - | 46.9 | 88.6 | 105 | 114 | 41.6 | 107 | - | 1770 | 158
darinaparsin + T0901317 | 53.2 | 160 | 105 | 45.6 | 101 | 73.9 | 109 | 46.8 | 220 | 70.6
darinaparsin + midostaurin | - | 243 | 241 | 135 | 168 | 92.0 | 86.1 | 319 | 408 | 165
KU-0063794 + tamatinib | 115 | 263 | 291 | 176 | 171 | 352 | 63.4 | 60.7 | 153 | 76.5
midostaurin + crizotinib | - | 430 | 120 | 175 | 316 | 94.1 | 101 | 73.9 | 197 | 76.3
midostaurin + nutlin-3 | - | 204 | 84.1 | 174 | 184 | 148 | 225 | 398 | 205 | 34.1
crizotinib + T0901317 | 162 | 168 | 79.8 | 238 | 49.7 | 133 | 107 | 22.2 | 176 | 285
fludarabine + nutlin-3 | - | 85.8 | 73.0 | 274 | 78.3 | 282 | 104 | 118 | 2880 | 65.4
nutlin-3 + darinaparsin | - | 124 | 65.0 | 188 | 169 | 117 | 59.5 | 20.5 | 146 | 210
SU6656 + tamatinib | - | 123 | 149 | 198 | 169 | 636 | 126 | 462 | 201 | 1120
KU-0063794 + darinaparsin | - | 172 | 121 | 67.2 | 123 | 119 | 41.2 | - | 245 | 68.7
OSI-906 + tamatinib | - | 206 | 1270 | 145 | 650 | 352 | 49.0 | 46.1 | 406 | 114
OSI-906 + darinaparsin | - | 63.7 | 93.6 | 215 | 213 | 68.3 | 102 | 139 | 183 | 71.0
midostaurin + fludarabine | - | 306 | 494 | 111 | 159 | 224 | 48.9 | 426 | 1790 | 249
KU-0063794 + crizotinib | 39.0 | 122 | 103 | 407 | 56.4 | 67.1 | 182 | 81.0 | 159 | 123
nutlin-3 + tamatinib | - | 181 | 343 | 204 | 308 | 319 | 182 | 46.0 | 146 | 346
fludarabine + SU6656 | - | 173 | 179 | 122 | 243 | 34.3 | 187 | 276 | 6040 | 268
nutlin-3 + OSI-906 | - | 109 | 150 | 137 | 148 | 117 | 144 | 139 | 128 | 85.4
darinaparsin + fludarabine | - | 167 | 165 | 223 | 42.9 | 176 | 186 | 107 | 3550 | 156
fludarabine + tamatinib | - | 99.6 | 148 | 133 | 154 | 304 | 91.8 | 132 | 953 | 177
KU-0063794 + OSI-906 | - | 55.2 | 89.1 | 143 | 289 | 79.1 | 397 | - | 141 | 97.5
SU6656 + OSI-906 | - | 205 | 127 | 131 | 157 | 125 | 93.4 | 191 | 365 | 45.7
T0901317 + KU-0063794 | 531 | 112 | 52.2 | 127 | 17.5 | 58.0 | 316 | 30.6 | 58.0 | 60.7
nutlin-3 + KU-0063794 | 48.8 | 133 | 128 | 212 | 131 | 66.1 | 276 | 107 | 116 | 97.2
nutlin-3 + crizotinib | - | 228 | 164 | 209 | 76.4 | 56.9 | 29.2 | 25.8 | 87.3 | 45.3
tamatinib + crizotinib | - | 185 | 253 | 112 | 151 | 166 | 58.0 | - | 170 | 69.3
SU6656 + crizotinib | - | 210 | 116 | 151 | 203 | 56.2 | 72.8 | 258 | 93.4 | 297
SU6656 + T0901317 | 77.7 | 217 | 20.5 | 80.3 | 310 | 83.6 | 81.6 | 148 | 119 | 73.4
darinaparsin + crizotinib | - | 125 | 71.5 | 89.4 | 97.9 | 39.5 | 102 | 105 | 160 | 41.3
crizotinib + OSI-906 | - | 83.5 | 71.0 | 184 | 173 | 80.8 | 60.0 | 159 | 160 | 72.0

Repeated from the top, 4 entries:

Drugs,501mel,A2058,COLO 792,UACC-62,COLO 800,LOX IMVI,IPC-298,MZ2-MEL,WM3526,IST-MEL1
KU-0063794 + midostaurin,189,388,163,191,484,232,437,173,189,110
fludarabine + OSI-906,-,118,62.1,63.1,99.1,76.0,210,-,4150,216
T0901317 + tamatinib,145,280,234,307,157,367,66.0,188,165,194
KU-0063794 + SU6656,313,190,132,86.3,374,87.4,140,244,159,107